Laboratory results published in publication PMC11328874 (2024).
These are yes or no findings as the source states them, for the method shown. Binding seen in cells or lysates may run through a third protein. Some results given as binding are weak or reduced against the parent protein; the word gives no strength. Sequences can lack the tags named with a protein.

T1: FLAG-Eya3 (human), wild type (human) (UniProt Q99504)
T1 sequence: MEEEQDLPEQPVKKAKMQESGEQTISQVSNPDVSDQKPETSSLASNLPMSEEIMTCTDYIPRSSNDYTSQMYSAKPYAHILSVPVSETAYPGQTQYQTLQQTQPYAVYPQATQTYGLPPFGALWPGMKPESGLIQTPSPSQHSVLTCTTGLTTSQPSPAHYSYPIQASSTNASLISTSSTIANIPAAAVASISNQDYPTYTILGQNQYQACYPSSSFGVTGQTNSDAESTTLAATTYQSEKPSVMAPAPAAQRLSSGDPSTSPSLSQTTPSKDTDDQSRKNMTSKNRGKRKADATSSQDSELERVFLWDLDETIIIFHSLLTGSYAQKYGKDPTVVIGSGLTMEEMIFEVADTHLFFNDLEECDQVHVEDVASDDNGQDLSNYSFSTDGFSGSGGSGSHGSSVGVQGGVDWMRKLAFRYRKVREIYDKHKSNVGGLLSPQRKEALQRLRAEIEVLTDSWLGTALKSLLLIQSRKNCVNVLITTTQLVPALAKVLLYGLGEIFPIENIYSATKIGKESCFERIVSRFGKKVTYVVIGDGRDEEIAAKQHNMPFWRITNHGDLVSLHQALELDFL

T2: FLAG-Eya2 (human), wild type (human) (UniProt O00167)
T2 sequence: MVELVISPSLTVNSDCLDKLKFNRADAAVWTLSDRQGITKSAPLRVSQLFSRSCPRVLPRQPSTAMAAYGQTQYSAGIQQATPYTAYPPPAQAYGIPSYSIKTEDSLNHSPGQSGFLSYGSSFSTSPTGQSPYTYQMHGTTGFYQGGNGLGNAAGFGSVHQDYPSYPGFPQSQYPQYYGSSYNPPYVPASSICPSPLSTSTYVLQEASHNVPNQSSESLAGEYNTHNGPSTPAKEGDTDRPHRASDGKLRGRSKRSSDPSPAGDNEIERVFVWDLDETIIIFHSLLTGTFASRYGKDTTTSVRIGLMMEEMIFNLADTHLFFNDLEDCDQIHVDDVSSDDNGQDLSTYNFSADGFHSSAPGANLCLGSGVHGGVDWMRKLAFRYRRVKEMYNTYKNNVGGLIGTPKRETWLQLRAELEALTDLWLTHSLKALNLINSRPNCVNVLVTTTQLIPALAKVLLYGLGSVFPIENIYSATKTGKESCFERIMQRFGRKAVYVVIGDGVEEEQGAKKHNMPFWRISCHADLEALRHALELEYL

T3: FLAG-Eya2 Δ32 to 54 (human) (UniProt O00167)
T3 sequence: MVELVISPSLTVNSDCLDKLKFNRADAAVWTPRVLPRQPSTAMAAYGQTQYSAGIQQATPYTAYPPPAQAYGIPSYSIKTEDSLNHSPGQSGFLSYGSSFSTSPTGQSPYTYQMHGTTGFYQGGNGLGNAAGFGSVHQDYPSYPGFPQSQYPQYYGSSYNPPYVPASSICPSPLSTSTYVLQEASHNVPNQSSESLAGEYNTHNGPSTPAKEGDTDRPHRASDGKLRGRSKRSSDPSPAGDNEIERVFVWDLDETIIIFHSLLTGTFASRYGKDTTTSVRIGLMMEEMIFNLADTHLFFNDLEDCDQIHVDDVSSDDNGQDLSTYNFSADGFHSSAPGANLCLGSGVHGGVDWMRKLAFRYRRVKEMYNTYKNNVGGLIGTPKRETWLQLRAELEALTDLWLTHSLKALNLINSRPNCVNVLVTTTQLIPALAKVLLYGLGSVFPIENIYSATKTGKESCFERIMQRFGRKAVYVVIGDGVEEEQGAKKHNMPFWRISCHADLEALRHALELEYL

T4: FLAG-Eya2 Δ32 to 99 (human) (UniProt O00167)
T4 sequence: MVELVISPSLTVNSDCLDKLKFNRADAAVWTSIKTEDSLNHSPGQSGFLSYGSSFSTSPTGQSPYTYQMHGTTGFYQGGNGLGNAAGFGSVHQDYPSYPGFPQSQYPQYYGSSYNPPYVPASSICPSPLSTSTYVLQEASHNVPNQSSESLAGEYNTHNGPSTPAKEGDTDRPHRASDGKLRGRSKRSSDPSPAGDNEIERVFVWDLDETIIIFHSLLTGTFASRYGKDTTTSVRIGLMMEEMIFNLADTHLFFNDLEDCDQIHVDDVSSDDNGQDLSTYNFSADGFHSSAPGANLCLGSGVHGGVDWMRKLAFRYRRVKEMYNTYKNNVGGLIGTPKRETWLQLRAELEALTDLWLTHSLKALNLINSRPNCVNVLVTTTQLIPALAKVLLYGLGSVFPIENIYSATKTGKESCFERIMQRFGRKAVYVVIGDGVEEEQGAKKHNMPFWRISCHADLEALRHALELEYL


Assays:
Assay in all cases: co-IP; HEK cells cotransfected with FLAG-Eya3 or FLAG-Eya2 (wild type or deletions) and HA-B55α (wild type or mutants); FLAG gel in lysate at 4 °C overnight, eluted with FLAG peptide; Western blot with α-FLAG and α-HA
[1] = biological target: T1, FLAG-Eya3 (human), wild type (human)
[2] = biological target: T2, FLAG-Eya2 (human), wild type (human)
[3] = biological target: T3, FLAG-Eya2 Δ32 to 54 (human)
[4] = biological target: T4, FLAG-Eya2 Δ32 to 99 (human)

| Binder | binding [1] | binding [2] | binding [3] | binding [4] |
| --- | --- | --- | --- | --- |
| HA-B55α K48E (protein, UniProt P63151 1-447) MAGAGGGNDIQWCFSQVKGAVDDDVAEADIISTVEFNHSGELLATGDEGGRVVIFQQEQENKIQSHSRGEYNVYSTFQSHEPEFDYLKSLEIEEKINKIRWLPQKNAAQFLLSTNDKTIKLWKISERDKRPEGYNLKEEDGRYRDPTTVTTLRVPVFRPMDLMVEASPRRIFANAHTYHINSISINSDYETYLSADDLRINLWHLEITDRSFNIVDIKPANMEELTEVITAAEFHPNSCNTFVYSSSKGTIRLCDMRASALCDRHSKLFEEPEDPSNRSFFSEIISSISDVKFSHSGRYMMTRDYLSVKIWDLNMENRPVETYQVHEYLRSKLCSLYENDCIFDKFECCWNGSDSVVMTGSYNNFFRMFDRNTKRDITLEASRENNKPRTVLKPRKVCASGKRKKDEISVDSLDFNKKILHTAWHPKENIIAVATTNNLYIFQDKVN | binds |  |  |  |
| HA-B55α D197K (protein, UniProt P63151 1-447) MAGAGGGNDIQWCFSQVKGAVDDDVAEADIISTVEFNHSGELLATGDKGGRVVIFQQEQENKIQSHSRGEYNVYSTFQSHEPEFDYLKSLEIEEKINKIRWLPQKNAAQFLLSTNDKTIKLWKISERDKRPEGYNLKEEDGRYRDPTTVTTLRVPVFRPMDLMVEASPRRIFANAHTYHINSISINSDYETYLSADKLRINLWHLEITDRSFNIVDIKPANMEELTEVITAAEFHPNSCNTFVYSSSKGTIRLCDMRASALCDRHSKLFEEPEDPSNRSFFSEIISSISDVKFSHSGRYMMTRDYLSVKIWDLNMENRPVETYQVHEYLRSKLCSLYENDCIFDKFECCWNGSDSVVMTGSYNNFFRMFDRNTKRDITLEASRENNKPRTVLKPRKVCASGKRKKDEISVDSLDFNKKILHTAWHPKENIIAVATTNNLYIFQDKVN | binds |  |  |  |
| HA-tagged B55α (HA-B55α), wild type (protein, UniProt P63151 1-447) MAGAGGGNDIQWCFSQVKGAVDDDVAEADIISTVEFNHSGELLATGDKGGRVVIFQQEQENKIQSHSRGEYNVYSTFQSHEPEFDYLKSLEIEEKINKIRWLPQKNAAQFLLSTNDKTIKLWKISERDKRPEGYNLKEEDGRYRDPTTVTTLRVPVFRPMDLMVEASPRRIFANAHTYHINSISINSDYETYLSADDLRINLWHLEITDRSFNIVDIKPANMEELTEVITAAEFHPNSCNTFVYSSSKGTIRLCDMRASALCDRHSKLFEEPEDPSNRSFFSEIISSISDVKFSHSGRYMMTRDYLSVKIWDLNMENRPVETYQVHEYLRSKLCSLYENDCIFDKFECCWNGSDSVVMTGSYNNFFRMFDRNTKRDITLEASRENNKPRTVLKPRKVCASGKRKKDEISVDSLDFNKKILHTAWHPKENIIAVATTNNLYIFQDKVN | binds | binds | binds | binds |
| HA-B55α E27R (protein, UniProt P63151 1-447) MAGAGGGNDIQWCFSQVKGAVDDDVARADIISTVEFNHSGELLATGDKGGRVVIFQQEQENKIQSHSRGEYNVYSTFQSHEPEFDYLKSLEIEEKINKIRWLPQKNAAQFLLSTNDKTIKLWKISERDKRPEGYNLKEEDGRYRDPTTVTTLRVPVFRPMDLMVEASPRRIFANAHTYHINSISINSDYETYLSADDLRINLWHLEITDRSFNIVDIKPANMEELTEVITAAEFHPNSCNTFVYSSSKGTIRLCDMRASALCDRHSKLFEEPEDPSNRSFFSEIISSISDVKFSHSGRYMMTRDYLSVKIWDLNMENRPVETYQVHEYLRSKLCSLYENDCIFDKFECCWNGSDSVVMTGSYNNFFRMFDRNTKRDITLEASRENNKPRTVLKPRKVCASGKRKKDEISVDSLDFNKKILHTAWHPKENIIAVATTNNLYIFQDKVN | binds |  |  |  |
